Source: PMC4515122
No constants are given. Whether binding was seen depends on the method and setting.

Protein sequences, listed by entry. Tags and fused reporters are not part of them.
UniProt O43715: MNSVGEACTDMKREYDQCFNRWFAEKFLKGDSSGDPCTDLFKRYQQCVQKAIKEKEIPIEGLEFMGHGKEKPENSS

Target: Full-length TRIAP1 (residues 1-76), His6 vector (human) (UniProt O43715)
Assay: SEC + other: NMR line widths; free TRIAP1 in solution; gel filtration profiles and NMR line widths; both purified

For “Full-length TRIAP1 (residues 1-76), His6 vector (from UniProt O43715 1-76)”, which binding is on record?
Its binding is “no binding”.
